From the supplement of paper PMC12819154, “High-throughput peptide-centric local stability assay extends protein–ligand identification to membrane proteins, tissues and bacteria” (Nature Structural & Molecular Biology, 2025) come the findings set out here.

By UniProt entry, the sequences of proteins in these tests, tags left out. Where a name states a change or a piece, a line headed by the entry shows the natural chain unless it says otherwise.
UniProt Q4QQM4: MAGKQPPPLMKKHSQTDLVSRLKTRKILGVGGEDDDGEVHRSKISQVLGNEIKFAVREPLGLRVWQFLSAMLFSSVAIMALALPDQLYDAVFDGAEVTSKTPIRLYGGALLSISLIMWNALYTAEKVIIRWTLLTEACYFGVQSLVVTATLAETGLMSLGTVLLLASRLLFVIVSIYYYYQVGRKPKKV
UniProt Q3UUG6: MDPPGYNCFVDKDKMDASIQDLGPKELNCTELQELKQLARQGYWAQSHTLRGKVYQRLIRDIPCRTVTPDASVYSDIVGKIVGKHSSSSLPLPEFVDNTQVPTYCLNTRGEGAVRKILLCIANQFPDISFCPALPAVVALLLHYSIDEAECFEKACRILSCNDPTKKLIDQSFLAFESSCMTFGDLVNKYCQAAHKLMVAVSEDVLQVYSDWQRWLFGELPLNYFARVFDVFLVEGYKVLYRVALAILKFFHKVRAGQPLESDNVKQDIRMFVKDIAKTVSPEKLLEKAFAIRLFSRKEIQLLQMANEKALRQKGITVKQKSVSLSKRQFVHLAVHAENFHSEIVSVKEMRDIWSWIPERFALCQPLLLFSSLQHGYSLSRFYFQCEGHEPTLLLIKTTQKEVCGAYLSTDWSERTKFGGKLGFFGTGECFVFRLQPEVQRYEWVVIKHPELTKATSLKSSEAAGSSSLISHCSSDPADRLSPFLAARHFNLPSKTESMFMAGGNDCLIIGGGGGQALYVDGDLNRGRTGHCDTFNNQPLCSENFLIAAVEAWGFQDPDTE
UniProt Q5DTN8: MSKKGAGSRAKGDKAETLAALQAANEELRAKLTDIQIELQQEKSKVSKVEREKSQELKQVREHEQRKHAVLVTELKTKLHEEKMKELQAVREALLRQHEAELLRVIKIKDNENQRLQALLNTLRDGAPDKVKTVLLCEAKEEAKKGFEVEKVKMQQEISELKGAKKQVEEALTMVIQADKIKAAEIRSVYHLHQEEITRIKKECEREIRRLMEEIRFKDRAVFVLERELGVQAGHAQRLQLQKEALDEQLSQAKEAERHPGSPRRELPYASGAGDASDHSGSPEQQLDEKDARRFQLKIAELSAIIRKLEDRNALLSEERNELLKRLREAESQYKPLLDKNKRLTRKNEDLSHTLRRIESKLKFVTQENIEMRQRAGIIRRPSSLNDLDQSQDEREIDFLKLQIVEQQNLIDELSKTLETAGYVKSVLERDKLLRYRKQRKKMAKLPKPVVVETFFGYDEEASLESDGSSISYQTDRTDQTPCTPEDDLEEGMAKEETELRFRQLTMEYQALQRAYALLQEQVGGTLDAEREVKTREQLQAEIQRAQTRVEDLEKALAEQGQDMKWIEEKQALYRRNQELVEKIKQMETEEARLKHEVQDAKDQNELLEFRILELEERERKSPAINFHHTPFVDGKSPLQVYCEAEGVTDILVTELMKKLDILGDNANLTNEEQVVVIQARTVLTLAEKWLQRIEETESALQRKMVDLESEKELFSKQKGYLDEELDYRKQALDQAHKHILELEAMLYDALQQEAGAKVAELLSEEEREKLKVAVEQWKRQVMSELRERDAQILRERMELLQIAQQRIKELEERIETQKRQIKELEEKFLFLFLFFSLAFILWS
UniProt Q499D0: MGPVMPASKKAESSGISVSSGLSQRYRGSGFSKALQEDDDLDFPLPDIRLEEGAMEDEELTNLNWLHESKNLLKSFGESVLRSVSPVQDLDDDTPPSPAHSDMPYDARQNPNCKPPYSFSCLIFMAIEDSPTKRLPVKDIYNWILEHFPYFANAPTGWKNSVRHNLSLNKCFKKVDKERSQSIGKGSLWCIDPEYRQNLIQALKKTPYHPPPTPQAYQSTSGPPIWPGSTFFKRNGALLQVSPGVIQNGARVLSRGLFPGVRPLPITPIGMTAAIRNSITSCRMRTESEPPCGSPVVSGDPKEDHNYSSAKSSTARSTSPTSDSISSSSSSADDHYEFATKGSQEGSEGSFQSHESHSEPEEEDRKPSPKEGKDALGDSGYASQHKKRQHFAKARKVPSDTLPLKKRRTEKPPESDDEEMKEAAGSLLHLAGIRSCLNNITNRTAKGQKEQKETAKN
UniProt Q3U3N6: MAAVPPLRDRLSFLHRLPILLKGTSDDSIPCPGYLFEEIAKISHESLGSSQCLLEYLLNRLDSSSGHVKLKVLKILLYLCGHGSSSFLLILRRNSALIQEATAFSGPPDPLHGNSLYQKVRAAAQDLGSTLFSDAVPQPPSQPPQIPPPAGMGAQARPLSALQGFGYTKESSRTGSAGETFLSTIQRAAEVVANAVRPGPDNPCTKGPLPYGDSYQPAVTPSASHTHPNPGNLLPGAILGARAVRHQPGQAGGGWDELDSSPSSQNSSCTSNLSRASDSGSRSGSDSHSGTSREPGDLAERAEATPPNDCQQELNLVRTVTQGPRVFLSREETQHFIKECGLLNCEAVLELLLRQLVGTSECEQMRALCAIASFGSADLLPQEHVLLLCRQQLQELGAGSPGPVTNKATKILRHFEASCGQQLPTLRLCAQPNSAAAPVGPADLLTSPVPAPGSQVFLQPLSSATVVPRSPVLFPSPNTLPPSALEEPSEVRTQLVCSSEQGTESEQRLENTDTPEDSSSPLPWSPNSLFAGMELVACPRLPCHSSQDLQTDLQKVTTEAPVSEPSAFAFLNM

Some of the results follow. Most entries show no effect beyond the scatter of the controls.

Compound in the experiment: CN[C@@H]1C[C@H]2O[C@@](C)([C@@H]1OC)n1c3ccccc3c3c4c(c5c6ccccc6n2c5c31)C(=O)NC4 [staurosporine]
Briefly: log2 fold change of tryptic peptide abundance, ligand vs vehicle (limited proteolysis) (log2 ratio); higher = more trypsin-susceptible (destabilized). Particulars: ligand concentration: 20 uM; sample: mouse liver crude lysate; replicate design: treated separately.
In the case of “UniProt Q4QQM4 (peptide sequence: KHSQTDLVSR, peptide start residue: 12)”, the log2 fold change is -0.401.
For “UniProt Q3UUG6 (peptide sequence: AGQPLESDNVK, peptide start residue: 256)”, the log2 fold change was determined as 0.152.
For the target “UniProt Q5DTN8 (peptide sequence: IKELEER, peptide start residue: 808)”, the log2 fold change was -0.0562.
For “UniProt Q499D0 (peptide sequence: DALGDSGYASQHK, peptide start residue: 374)”, the log2 fold change was 0.276.
As for “UniProt Q3U3N6 (peptide sequence: LPCHSSQDLQTDLQK, peptide start residue: 541)”, the log2 fold change is 0.349.
